The values that follow come from publication PMC3673989, “Effect of Single Amino Acid Substitution Observed in Cancer on Pim-1 Kinase Thermodynamic Stability and Structure” (PLoS ONE, 2013).

The target of this test is Pim-1 variants. As to the kind of experiment: Caliper mobility shift kinase assay. Conditions: exception K00487 and K00207a for Y53H. Format: biochemical, human. Here is the method:
Phosphorylation reaction was monitored using a coupled-enzyme assay in which ADP production is coupled to NADH oxidation by pyruvate kinase and lactate dehydrogenase. […] In the Caliper mobility shift assays kinase reactions were analyzed by microfluidic capillary electrophoresis. The final assay buffer was 50 mM HEPES, pH 7.5, 1 mM DTT, 0.02% Tween 20, 0.02% BSA, 10 mM beta-glycerophosphate, 0.01 mM Na3VO4, 0.6% DMSO, 8 mM MgCl2, 2 µM peptide and 0.2 nM kinase. The reactions were started by addition of substrate mix consisting of ATP and peptide substrate to kinase and inhibitor solution. ATP concentrations were adjusted to the Kmvalues of the specific Pim enzyme. After incubation for 60 min at 30°C reactions were terminated with 100 mM HEPES pH 7.5, 5% DMSO, 0.1% coating reagent (Caliper Lifescience) 10 mM EDTA pH 8.0, 0.015% Brij35. Levels of substrate and product were quantified by measuring the laser-induced fluorescence intensities of fluorescein labels of the peptide.

As for `CN[C@@H]1C[C@H]2O[C@@](C)([C@@H]1OC)n1c3ccccc3c3c4c(c5c6ccccc6n2c5c31)C(=O)NC4` [K00207a, STAUROSPORINE], the “IC50 for Pim-1 variants compared with wild type” value is given as “closely similar”.
